In PubChem BioAssay AID1508600 (Functional Genomics Laboratory (NCATS/FGL), 2020) one finds z-score data, which are given here for 107 sequences.

Hit rate of the full screen: of about 53,000 sequences, about 3,700 (7%) were called active.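 The calls were made as follows: active = gene knockdowns whose robust z-score for IL-1 alpha signal is at least 2 or at most -2, so actives lie on both sides; inactive = the rest.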 Some of the results follow.

The assay can be described thus: Components of the Cytosolic LPS Sensing Pathway: Gene Identification via Genome-wide siRNA Screen.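 Also: robust z of the log signal after scaling to non-targeting control siRNA wells of the plate.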 The settings on record: RAW264.7 macrophages, IL-1a HTRF, actives lie on both sides, screened at 100 nM (by protocol), cells primed 5 h with Pam3CSK4 first. In outline:
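IL-1a HTRF of supernatants after 24 hour LipidA transfection of Pam3CSK4-primed (5 hours) RAW264.7 cells, 48h post-siRNA transfection (100 nM). Scores: percent of plate negative-control median, then log-based robust z-score.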
In the case of GUAUCCUUCACAACUGUCUTT against Olfr786, the z-score was inactive: -1.66.
With GCUCACCACUUUUAAAACATT against Hectd2, the z-score was inactive: -0.122.
As to GGCAGUAAGAAAGGUUCAATT against Btk, the z-score was inactive: -0.437.
For the sequence GGAUGUUGAAGAUGAGUCATT against Haus3, the z-score was inactive: 0.707.
GGAUGCAUCUAAGGAUAAGTT against Gna13: the z-score is inactive: -1.36.
Then CGGUGGUAGAUGAGAUGUUTT against Ap2s1, with inactive: -1.09; and CGUUCAUUUCUAAUGGAAATT against Fkbp14, with inactive: 0.474.
Then GGACGAGGAGUACGAGCAATT against Nfkbia, with active: 2.6; and GGUAUAAGUUGGCAAGAUCTT against Cry2, with inactive: 0.849.
With GCAGGUUAAGUAGCUGACATT against Dync1li2, the z-score was active: -2.37.
With UAGCCAUCGCUCUUUCUUATT against Olfr594, the z-score is inactive: 0.216.
As for GGGUUUUUGUCAAAUCUGUTT against Ttc5, the z-score was active: -2.24.
Then CCAACAACAGAUGCACCCUTT against Ccl11, with inactive: -1.22; and GCUUUUGAUCCACAGAUUUTT against Prss33, with inactive: 0.372.
For CCACCGUAAACUUCCCACCTT against Igha, the z-score is inactive: -0.483.
For GCUGUGUAGUGUGCUAUUUTT against Slc6a15, the z-score is inactive: 1.18.
Then GGUGACUAUGAAGAAAAAATT against F13a1, with inactive: -0.727; and CGUGAUGUUUCGGAAGACATT against Grtp1, with inactive: 1.44.
Take GGCUCUGCCAUUUUCCCUUTT against F12: the z-score was inactive: -1.24.
The figure for “AACUGGACCACGGUACCAATT against A330070K13Rik” is inactive: 0.876.
The figure for GGAAGUAAUCAAGAAAUCATT against Gpx4 is inactive: 0.395.
Consider GCUUCUUACUGAUUGAUUGTT against Mgrn1, for which the z-score was inactive: 0.151.
Then GGAUCCAUUUUGAGGAUUUTT against Vipr1, with inactive: -0.056; and CCAGUGUUCUUACCUGGUGTT against Sesn2, with inactive: 0.949.
The figure for GGUCUAACGAGUUCAAAAATT against Brpf1 is inactive: -0.438; for GGGAGGGAUGCAGUAAAUGTT against Acaa1a it is inactive: -0.337; for GCAUACCUAGGAAAAAACUTT against Ednra it is inactive: 0.524.
On to GGUGACAAAGAAAACAACATT against Il12rb2, for which the z-score was inactive: -0.242.
Then GCCACAGUAUAGCACAAAGTT against Zfp810, with inactive: 0.196; and GCCUGACACUUGAUAUGUATT against Slc25a23, with inactive: -1.63.
The figure for GGAGGUUUUCCACCACUUGTT against Efcc1 is active: -2.04; for GCGAGUGUAUAAUAUUCCUTT against Blnk it is inactive: 1.07; for GCCUGUUAUUCAACAUUCUTT against Diaph2 it is inactive: 1.18.
On to GGACUAAUGGUGUUCACUGTT against Pcnx4, for which the z-score is inactive: -1.35.
As to GGCAUGCUCAGGUCGUGUUTT against Rita1, the z-score is inactive: -1.74.
Consider GGAACACAACUUCCUGUUCTT against Map11, for which the z-score is inactive: 1.05.
Then “GGGAGAGGACGACCUAAAATT against 4921524J17Rik”, with inactive: -0.0124; and GGCAUGAAUGGGAUACAUGTT against Srpk2, with inactive: -1.22.
Regarding GGAGCUUUGAAGAGACUGGTT against Olfr117, the z-score is active: -2.32.
Consider GCAUCAAAUAGUGGUACCUTT against Lsm14a, for which the z-score is inactive: -0.209.
Then GGUAUUUAGUAAACACCCATT against Edar, with inactive: 0.413; and GGACUCUGAUCUCUAUCAGTT against Tac2, with inactive: -0.357; and GGGACUCAACCUAUAUCUUTT against Gnpat, with inactive: 0.118.
The figure for GGCCAGGAGAAGAUUGAACTT against Ccdc42 is inactive: 0.00447.
In the case of CCCGGAUCUUUUCCUUACATT against Klf1, the z-score is inactive: -1.17.
Then GGUGAAAUUACAGCAUUGUTT against Otx1, with inactive: -0.673.
Then GGAACAUAAUGCAUUACCCTT against Nr1d2, with inactive: 1.17; and GGAAGAGCAUAUGGAAGACTT against Nxf7, with inactive: 0.362; and CGGUAGCCGGUCUUGGUGGTT against H2ac18, with inactive: 0.242.
For CGGCGGUGUGUUGUUUUAGTT against Hmces, the z-score is inactive: 0.36.
The figure for GGUUCCAGUCUUUAAUUUCTT against Tpst1 is inactive: 0.724; for GGGUUACCAGACUAACAAATT against Stfa3 it is inactive: 0.763.
Consider GGACAAGGAGGAUUUCUUCTT against Nprl2, for which the z-score is inactive: -0.226.
Then GGGCUGUUCUACUUAGUUATT against N6amt1, with inactive: 0.573.
The figure for GGAAGACAAUCGCUGCGUGTT against Tet3 is inactive: 0.927; for GCCAGGAGUCCUUUAGGAATT against Tmem159 it is inactive: -0.184; for GCCCAGUUCAACGGUGAAUTT against Zbtb1 it is inactive: -0.671.
Then GGAACAAAUUCUGGAGUUGTT against Zfp287, with inactive: 0.791.
As to GGUGUCCAAUAUUUUGAAGTT against Zfp120, the z-score is inactive: -0.839.
As for GCGAAGAAUGCAUCCUAAUTT against Rspo3, the z-score was inactive: -0.912.
Then GGACAGUUUAAGGACAACATT against Morn2, with inactive: 0.18; and GGAUAAAUGGUACAUUCAGTT against Coa7, with inactive: 0.958; and AAAGAGAUUGGAAAUCUUCTT against Ipcef1, with inactive: -0.449.
Then GGACAUGUUUGUGUUAAAGTT against Ctnna1, with inactive: 0.187.
Regarding GGAGCUGUUUGGACCUUCUTT against Adamtsl4, the z-score is inactive: -0.662.
Take GGUGAUUGUCAAGAUUAUGTT against Olfr651: the z-score is active: -2.1.
As for GGGACAAGUGACUGAAUUGTT against Dio3, the z-score is inactive: 0.408.
Then CCUAGACAAAGUUUCAAACTT against Xrcc4, with inactive: -0.662; and GGACAAGAUGGUGUCUAUCTT against Olfr1396, with inactive: 0.566; and GGCAUCGUAGGAUUUUUUGTT against Mtch2, with inactive: -0.229.
Then GCAACAUAAAAGAUUCUUGTT against Il1f5, with inactive: 0.424.
GGGCCUAUCUGAAAGUUUATT against Nrm: the z-score is inactive: -0.262.
Regarding GGUUCAGAACCAGUCCAUCTT against Gdpd5, the z-score was inactive: -1.38.
Regarding CCCAUGAAGAUUGUAAGUCTT against Nol12, the z-score is inactive: -0.201.
The figure for GGAAAGACCUCUUGAUAGGTT against Tbkbp1 is inactive: 0.113; for CCAAUCAUGUGGAUAUUUATT against Syngr3 it is inactive: -0.122.
The figure for GGAUUUGUAGUUCAUCUCATT against Olfr77 is inactive: 0.0834.
On to GGUCUGUAACUGGUUCAUCTT against Tgif1, for which the z-score is inactive: 0.255.
Regarding GGACUUACUCUCUCCGUGUTT against Marchf3, the z-score is inactive: 0.608.
Then GCUACAAUUGGCCUUAUCUTT against Stpg2, with active: -3.03; and GGGUUCAAGAAAUGAUAAUTT against F11, with inactive: 0.534.
GCAGUAUAACUAUCUGAAATT against Rgp1: the z-score was inactive: 1.24.
Then GCAAAAGUAAGGAGUCUAUTT against Clcn4, with inactive: -0.0173; and GGCAACUUUGUUAUAUACATT against Ctr9, with inactive: 0.212.
With “GGCUAUGUAGAUGGUUUUGTT against B830017H08Rik”, the z-score is active: 2.65.
Then CCUGGACAACCAACACUUATT against Pex13, with inactive: 1.2; and GGAUUUGGCCAACUCACCCTT against Acpp, with inactive: 1.64; and GGUUCCUAGAAAGAAAGUGTT against Pla2g15, with inactive: 0.0698.
Then GGAGUUCCUGGAGAAGAAATT against Chmp4b, with inactive: -0.61; and GAUCUUGGUUAUUCUACAUTT against Olfr1047, with inactive: 0.0987; and GAGCUGCUAAUGGAACCCUTT against Rhbdd3, with inactive: -1.53.
Then GCAAAAAUCGACUAAAGAGTT against Lingo2, with inactive: -0.362; and GGAGCUUCGAAACUACAUGTT against Tmem132a, with inactive: -0.679.
For the sequence GGACCUACAGCAUGGUAACTT against Pex3, the z-score was inactive: -1.02.
With GGAUAGCUGCGUAUGCCUATT against Lamtor1, the z-score is inactive: -0.391.
Take GGAGCUGUGGAAGAAGUUCTT against Tbx4: the z-score was inactive: -0.384.
As for “GGGAGAAUAUCAUGACCAATT against E330018D03Rik”, the z-score was inactive: 0.833.
Then GGCACAAGUAAAGGUAGUCTT against A26c3, with inactive: 1.01; and GGACCAGAAACUGUAUGCATT against Wrn, with inactive: -0.7.
The figure for GGCCUUCAAAUCAUACGCUTT against Ms4a19 is inactive: 0.283; for GCUUGUACGAUGUUACCCATT against Fbxo32 it is inactive: 0.673.
Then GGAGUCGUAUGAUAACAGATT against Cir1, with inactive: 0.192.
As for GGCUCACGAGGAACUAAAUTT against Ift52, the z-score was inactive: 0.115.
Consider GCCAAAUUAGCAGCUUGUGTT against Rln3, for which the z-score was inactive: -0.0674.
Turning to GGACAGAAAGAACUUGUCGTT against Sema5a, the z-score is inactive: -0.773.
Then CGCAGCAGUUGUGGUCAAUTT against Nnat, with inactive: -1.23; and GGUAAAAUUCCAGAGUUGUTT against Serpinb9, with inactive: -0.412.
